In doi:10.1101/377390:
No constants are given. Whether binding was seen depends on the method and setting. Binding can be weak; no strength is given. Sequences can lack the tags named with a protein.

The chains behind the UniProt entries cited, without tags or fusion partners. Where a name states a change or a piece, a line headed by the entry shows the natural chain unless it says otherwise.
UniProt Q23096: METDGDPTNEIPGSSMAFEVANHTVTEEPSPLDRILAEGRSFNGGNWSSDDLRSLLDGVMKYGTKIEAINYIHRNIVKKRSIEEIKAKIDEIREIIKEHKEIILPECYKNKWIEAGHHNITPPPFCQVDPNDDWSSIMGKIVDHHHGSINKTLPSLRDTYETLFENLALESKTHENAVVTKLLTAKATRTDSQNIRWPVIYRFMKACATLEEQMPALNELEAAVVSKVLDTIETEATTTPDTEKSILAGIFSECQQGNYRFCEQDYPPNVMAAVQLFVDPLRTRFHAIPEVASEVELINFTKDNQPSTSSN

Assays:
[1] = biological target: T1, SNPC-4 (yeast two-hybrid fusion) (C. elegans) (UniProt P91868); test: two-hybrid
T1 sequence: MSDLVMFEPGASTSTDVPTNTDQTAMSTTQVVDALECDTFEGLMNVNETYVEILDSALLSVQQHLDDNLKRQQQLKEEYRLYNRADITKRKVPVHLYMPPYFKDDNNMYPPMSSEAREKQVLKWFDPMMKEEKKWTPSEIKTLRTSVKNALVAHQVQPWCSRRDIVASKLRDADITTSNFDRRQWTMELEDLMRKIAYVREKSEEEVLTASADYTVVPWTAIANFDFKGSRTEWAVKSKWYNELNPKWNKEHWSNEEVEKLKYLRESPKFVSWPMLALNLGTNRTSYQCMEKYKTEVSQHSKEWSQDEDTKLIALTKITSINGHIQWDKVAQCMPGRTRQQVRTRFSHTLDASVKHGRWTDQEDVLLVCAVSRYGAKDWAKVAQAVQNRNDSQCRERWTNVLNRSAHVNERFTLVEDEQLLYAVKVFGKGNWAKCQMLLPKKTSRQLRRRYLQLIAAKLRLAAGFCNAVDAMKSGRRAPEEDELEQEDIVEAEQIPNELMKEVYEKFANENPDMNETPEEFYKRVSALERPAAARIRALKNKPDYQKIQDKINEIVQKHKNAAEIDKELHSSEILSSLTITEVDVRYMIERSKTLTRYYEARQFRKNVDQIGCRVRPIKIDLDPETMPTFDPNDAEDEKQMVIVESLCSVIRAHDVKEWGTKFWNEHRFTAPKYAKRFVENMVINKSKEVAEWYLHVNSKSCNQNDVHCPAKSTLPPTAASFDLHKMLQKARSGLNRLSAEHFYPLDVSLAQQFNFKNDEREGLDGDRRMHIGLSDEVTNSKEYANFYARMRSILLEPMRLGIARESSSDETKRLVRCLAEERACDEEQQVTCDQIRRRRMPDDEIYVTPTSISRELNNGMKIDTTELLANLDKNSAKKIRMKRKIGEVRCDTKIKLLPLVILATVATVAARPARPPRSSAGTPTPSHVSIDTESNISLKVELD

[2] = biological target: T2, PRDE-1 (yeast two-hybrid fusion) (C. elegans) (UniProt O17828); test: two-hybrid
T2 sequence: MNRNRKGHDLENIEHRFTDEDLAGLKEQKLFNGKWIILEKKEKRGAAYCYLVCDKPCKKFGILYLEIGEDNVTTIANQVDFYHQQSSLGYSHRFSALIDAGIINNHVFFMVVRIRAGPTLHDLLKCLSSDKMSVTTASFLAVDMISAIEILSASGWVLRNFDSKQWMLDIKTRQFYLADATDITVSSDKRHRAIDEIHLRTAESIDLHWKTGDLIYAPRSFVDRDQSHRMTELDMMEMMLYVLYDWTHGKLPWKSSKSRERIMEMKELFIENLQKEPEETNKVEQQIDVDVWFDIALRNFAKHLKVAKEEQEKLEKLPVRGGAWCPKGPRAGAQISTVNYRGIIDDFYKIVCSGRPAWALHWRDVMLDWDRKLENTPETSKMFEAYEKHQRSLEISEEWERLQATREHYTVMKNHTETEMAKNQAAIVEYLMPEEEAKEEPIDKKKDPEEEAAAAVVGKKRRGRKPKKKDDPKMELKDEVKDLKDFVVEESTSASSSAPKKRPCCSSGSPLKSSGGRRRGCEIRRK

Row | Substance | binding [1] | binding [2]
1 | TOFU-5 (yeast two-hybrid fusion) (from UniProt Q23096) | binds | –
2 | TOFU-4 (yeast two-hybrid fusion) (C. elegans) | – | binds
